Laboratory results taken from PubChem BioAssay AID188 (DTP/NCI, 2004).
The mice bore no tumour; each value counts animals alive of those treated. Survivors were counted at the toxicity check, usually on the fifth day, unless a day is given; later deaths do not show. Schedule codes are those of the source, taken here to give the interval after Q, in days (D) or hours (H), and the number of doses after X. Some entries were tested several times; the results are listed from low to high.

Test system: CD2F1 mice, nontumored, toxicity/survival
Assay: NCI In Vivo Anticancer Drug Screen. Data for tumor model Nontumored Animals (Toxicity Test) in CD2F1 (CDF1) mice
Details: vehicle: saline

O=c1[nH]c(=O)n(C2CC(O)C(CO)O2)cc1F (configuration not stated)
survivor count (dose: 15.6 mg/kg/injection, schedule: Q01DX005 (ip)): 8 of 8 | survivor count (dose: 15.6 mg/kg/injection, schedule: Q01DX009 (ip)): 8 of 8 | survivor count (dose: 15.6 mg/kg/injection, schedule: Q03HX008 (ip)): 10 of 10 | survivor count (dose: 25.0 mg/kg/injection, schedule: Q03HX008 (ip)): 10 of 10 | survivor count (dose: 31.3 mg/kg/injection, schedule: Q01DX005 (ip)): 8 of 8 | survivor count (dose: 31.3 mg/kg/injection, schedule: Q01DX009 (ip)): 8 of 8 | survivor count (dose: 31.3 mg/kg/injection, schedule: Q02DX005 (ip)): 8 of 8 | survivor count (dose: 31.3 mg/kg/injection, schedule: Q03HX008 (ip)): 10 of 10 | survivor count (dose: 31.3 mg/kg/injection, schedule: Q04DX003 (ip)): 8 of 8 | survivor count (dose: 50.0 mg/kg/injection, schedule: Q03HX008 (ip)): 10 of 10 | survivor count (dose: 62.5 mg/kg/injection, schedule: Q01DX001 (ip)): 8 of 8 | survivor count (dose: 62.5 mg/kg/injection, schedule: Q01DX005 (ip)): 8 of 8 | survivor count (dose: 62.5 mg/kg/injection, schedule: Q01DX009 (ip)): 8 of 8 | survivor count (dose: 62.5 mg/kg/injection, schedule: Q02DX005 (ip)): 8 of 8 | survivor count (dose: 62.5 mg/kg/injection, schedule: Q03HX008 (ip)): 10 of 10 | survivor count (dose: 62.5 mg/kg/injection, schedule: Q04DX003 (ip)): 8 of 8 | survivor count (dose: 100.0 mg/kg/injection, schedule: Q03HX008 (ip)): 10 of 10 | survivor count (dose: 125.0 mg/kg/injection, schedule: Q01DX001 (ip)): 8 of 8 | survivor count (dose: 125.0 mg/kg/injection, schedule: Q01DX005 (ip)): 8 of 8 | survivor count (dose: 125.0 mg/kg/injection, schedule: Q01DX009 (ip)): 8 of 8 | survivor count (dose: 125.0 mg/kg/injection, schedule: Q02DX005 (ip)): 8 of 8 | survivor count (dose: 125.0 mg/kg/injection, schedule: Q03HX008 (ip)): 9 of 10 | survivor count (dose: 125.0 mg/kg/injection, schedule: Q04DX003 (ip)): 8 of 8 | survivor count (dose: 200.0 mg/kg/injection, schedule: Q03HX008 (ip)): 10 of 10 | survivor count (dose: 250.0 mg/kg/injection, schedule: Q01DX001 (ip)): 8 of 8 | survivor count (dose: 250.0 mg/kg/injection, schedule: Q01DX005 (ip)): 8 of 8 | survivor count (dose: 250.0 mg/kg/injection, schedule: Q01DX009 (ip)): 8 of 8 | survivor count (dose: 250.0 mg/kg/injection, schedule: Q02DX005 (ip)): 8 of 8 | survivor count (dose: 250.0 mg/kg/injection, schedule: Q03HX008 (ip)): 10 of 10 | survivor count (dose: 250.0 mg/kg/injection, schedule: Q04DX003 (ip)): 8 of 8 | survivor count (dose: 400.0 mg/kg/injection, schedule: Q03HX008 (ip)): 10 of 10 | survivor count (dose: 500.0 mg/kg/injection, schedule: Q01DX001 (ip)): 8 of 8 | survivor count (dose: 500.0 mg/kg/injection, schedule: Q02DX005 (ip)): 8 of 8 | survivor count (dose: 500.0 mg/kg/injection, schedule: Q04DX003 (ip)): 8 of 8 | survivor count (dose: 1000.0 mg/kg/injection, schedule: Q01DX001 (ip)): 8 of 8

O=c1[nH]cc(F)c(=O)[nH]1
survivor count (dose: 1.88 mg/kg/injection, schedule: Q04DX003 (ip)): 8 of 8 | survivor count (dose: 3.75 mg/kg/injection, schedule: Q04DX003 (ip)): 8 of 8 | survivor count (dose: 5.0 mg/kg/injection, schedule: Q01DX006 (ip)): 10 of 10 | survivor count (dose: 5.0 mg/kg/injection, schedule: Q01DX009 (ip)): 10 of 10 and 4 of 4 | survivor count (dose: 6.25 mg/kg/injection, schedule: Q01DX009 (ip)): 8 of 8 | survivor count (dose: 7.5 mg/kg/injection, schedule: Q04DX003 (ip)): 8 of 8 | survivor count (dose: 10.0 mg/kg/injection, schedule: Q01DX006 (ip)): 10 of 10 | survivor count (dose: 10.0 mg/kg/injection, schedule: Q01DX009 (ip)): 10 of 10 and 4 of 4 | survivor count (dose: 12.5 mg/kg/injection, schedule: Q01DX006 (ip)): 8 of 8 | survivor count (dose: 12.5 mg/kg/injection, schedule: Q01DX009 (ip)): 8 of 8 | survivor count (dose: 12.5 mg/kg/injection, schedule: Q02DX005 (ip)): 8 of 8 | survivor count (dose: 13.2 mg/kg/injection, schedule: Q01DX009 (ip)): 6 of 6 and 8 of 8 | survivor count (dose: 13.3 mg/kg/injection, schedule: Q01DX009 (ip)): 10 of 10 | survivor count (dose: 15.0 mg/kg/injection, schedule: Q01DX009 (ip)): 10 of 10 | survivor count (dose: 15.0 mg/kg/injection, schedule: Q04DX003 (ip)): 4 of 4 and 8 of 8 | survivor count (dose: 17.8 mg/kg/injection, schedule: Q04DX003 (ip)): 5 of 5 | survivor count (dose: 20.0 mg/kg/injection, schedule: Q01DX006 (ip)): 10 of 10 | survivor count (dose: 20.0 mg/kg/injection, schedule: Q01DX009 (ip)): 10 of 10, 4 of 4, 6 of 6, 8 of 8 | survivor count (dose: 25.0 mg/kg/injection, schedule: Q01DX006 (ip)): 8 of 8 | survivor count (dose: 25.0 mg/kg/injection, schedule: Q01DX009 (ip)): 10 of 10 and 8 of 8 | survivor count (dose: 25.0 mg/kg/injection, schedule: Q02DX005 (ip)): 8 of 8 | survivor count (dose: 25.0 mg/kg/injection, schedule: Q04DX003 (ip)): 8 of 8 | survivor count (dose: 26.7 mg/kg/injection, schedule: Q04DX003 (ip)): 5 of 5 | survivor count (dose: 27.0 mg/kg/injection, schedule: Q01DX009 (ip)): 6 of 6 and 8 of 8 | survivor count (dose: 29.6 mg/kg/injection, schedule: Q04DX003 (ip)): 5 of 5 | survivor count (dose: 30.0 mg/kg/injection, schedule: Q01DX009 (ip)): 9 of 10 and 10 of 10 | survivor count (dose: 30.0 mg/kg/injection, schedule: Q04DX003 (ip)): 4 of 4 and 8 of 8 | survivor count (dose: 40.0 mg/kg/injection, schedule: Q01DX006 (ip)): 10 of 10 | survivor count (dose: 40.0 mg/kg/injection, schedule: Q01DX009 (ip)): 4 of 4 | survivor count (dose: 40.0 mg/kg/injection, schedule: Q04DX003 (ip)): 4 of 4, 5 of 5, 8 of 8 | survivor count (dose: 44.4 mg/kg/injection, schedule: Q04DX003 (ip)): 5 of 5 | survivor count (dose: 50.0 mg/kg/injection, schedule: Q01DX001 (ip)): 8 of 8 | survivor count (dose: 50.0 mg/kg/injection, schedule: Q01DX006 (ip)): 8 of 8 | survivor count (dose: 50.0 mg/kg/injection, schedule: Q01DX009 (ip)): 8 of 8 | survivor count (dose: 50.0 mg/kg/injection, schedule: Q02DX005 (ip)): 8 of 8 | survivor count (dose: 50.0 mg/kg/injection, schedule: Q04DX003 (ip)): 8 of 8 | survivor count (dose: 60.0 mg/kg/injection, schedule: Q04DX003 (ip)): 4 of 4, 5 of 5, 8 of 8 | survivor count (dose: 67.0 mg/kg/injection, schedule: Q04DX003 (ip)): 5 of 5 | survivor count (dose: 80.0 mg/kg/injection, schedule: Q04DX003 (ip)): 4 of 4 and 8 of 8 | survivor count (dose: 90.0 mg/kg/injection, schedule: Q04DX003 (ip)): 4 of 4 and 5 of 5 | survivor count (dose: 100.0 mg/kg/injection, schedule: Q01DX001 (ip)): 8 of 8 | survivor count (dose: 100.0 mg/kg/injection, schedule: Q01DX006 (ip)): 8 of 8 | survivor count (dose: 100.0 mg/kg/injection, schedule: Q02DX005 (ip)): 8 of 8 | survivor count (dose: 100.0 mg/kg/injection, schedule: Q04DX003 (ip)): 5 of 5 and 8 of 8 | survivor count (dose: 120.0 mg/kg/injection, schedule: Q04DX003 (ip)): 4 of 4 and 8 of 8 | survivor count (dose: 150.0 mg/kg/injection, schedule: Q01DX001 (ip)): 10 of 10 | survivor count (dose: 150.0 mg/kg/injection, schedule: Q04DX003 (ip)): 5 of 5 | survivor count (dose: 175.0 mg/kg/injection, schedule: Q01DX001 (ip)): 10 of 10 | survivor count (dose: 200.0 mg/kg/injection, schedule: Q01DX001 (ip)): 10 of 10 and 8 of 8 | survivor count (dose: 200.0 mg/kg/injection, schedule: Q04DX003 (ip)): 8 of 8 | survivor count (dose: 225.0 mg/kg/injection, schedule: Q01DX001 (ip)): 10 of 10 and 9 of 9 | survivor count (dose: 400.0 mg/kg/injection, schedule: Q01DX001 (ip)): 8 of 8
